Screening data

The results are deposited in PubChem (AID1159506; NCATS, 2015).

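Genome-wide siRNA knockdown in TC32 Ewing sarcoma cells, comparing luciferase light from an NR0B1-promoter reporter with a CMV-promoter reporter 48 hours after transfection.
Each siRNA was applied at 20 nM.
A z-score of the log NR0B1-over-CMV signal, less the median of siRNAs with the same seed; more negative means a stronger specific loss of the NR0B1 reporter.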

This is part of the screen; most of the strongest results are not listed here.
Sequences are the guide (antisense) strand, without overhang.

siRNA,target gene,seed-corrected z-score
UUCUUUUGCUGCUCAGGUG,PACSIN1,-1.533
UAAGGUUGGAUAGGCGAUG,SLC5A1,-0.103
UGUAUUCAAGUCCUUAUCC,ANKRD44,-0.3567
UUGAUAACAAGGCCCGUGC,PLD5,1.797
UGAGUCAAGAUAGUCUUCC,NUB1,-0.356
ACAGGUAUGAGUCAGUUGA,KCNMB1,-1.052
UAAGCUCAAAGUAGCAUCU,TTC32,1.085
AAACUUCGCAGGAAGCAGC,PDE4D,-1.114
UUGAUGUUGAUUGUGAACG,TRAPPC9,-0.6352
UUCCUUUAGAACCCGAUCC,HSPE1,-1.069
UUUCUUCAUACUGUCUAGG,OTUD5,-1.219
UAAAUCCUCAAAUAAGUUC,RRS1,1.205
UUAUAUCCAAAGAGUAAUC,TC2N,-0.6567
UCUGUCAUUAGCUCUGACU,SFTA3,-0.3961
UAAUCUGAUCGAAAGUCUC,MMRN2,0.3476
UCAUUUGUGACAAGUCUAG,PARS2,0.02909
UCUCAUAUCUAAGUAAGUC,ZNF568,0.2426
UUCUGUAACAGGGCUGAAC,SLC45A4,-1.001
ACUGGGUUUACAUUCUCUG,PRR5,-0.6168
AUUCGACUCAAUCAUGUGG,CLIP2,-0.02469
UUUGGUGAUCUGAAAAGUC,USP39,0.2071
UCCGUCUCAAACUUGGUUC,KRT19,1.671
UAGUAGUCAGUAUGAAAGC,TMBIM4,-0.7373
UUUGCGUGCAGACUCCAUC,PRRC2C,-1.015
AGCAGAAUAAUACUAUUGC,PHTF2,0.1955
AAUGAUACCCUGGACAUUG,HAO2,-0.7883
UUGGAUACUUGCGUACUUC,HNRNPKP3,0.08319
UUCCUCAAAAUCGCUACUG,CNNM1,-0.2092
UAUCUUGUGAAUUUCUCGG,DKK3,-0.6606
UUUUCUCCUAUGAUCACUU,MIR99AHG,0.8412
AAAGAUACCCAUGAGGACA,SNX19P3,-1.252
UUUCUCUAAUCUUUCUUUC,CCZ1B,-0.8001
UUUCGUAGUAUCAAUAUCC,TRGV5,0.4741
UCUGGUACACGCCCUUCUU,ARHGAP11B,1.069
UCCUGUACCAUGGUGUCCU,C1orf189,1.017
UACAUCUUUGCAUAGACGG,TOMM40L,0.6042
UCAAUGUAAGGCACUGUUG,PRSS36,0.584
AUUCCCUCCUCCUUAAUGC,HEPN1,-0.1252
UUUUGGUUAAUUUCCGUCC,LINC00336,1.035
UUGUUUCUCUUCAAGAGCU,ASCL5,0.116
UCGAGAGUAUUUGUCAUCU,NOP10,-0.2445
UACCCGAACAUCAUGGUGG,CDC20,0.18
UAUACGUCCACUAGAGCUG,SOWAHC,0.6641

5 of the entries, repeated:

UAAAUCCUCAAAUAAGUUC against RRS1 gave seed-corrected z-score 1.205.
UUUCUCUAAUCUUUCUUUC against CCZ1B gave seed-corrected z-score -0.8001.
UAAGCUCAAAGUAGCAUCU against TTC32 gave seed-corrected z-score 1.085.
UACAUCUUUGCAUAGACGG against TOMM40L gave seed-corrected z-score 0.6042.
UUGGAUACUUGCGUACUUC against HNRNPKP3 gave seed-corrected z-score 0.08319.